# Test results reported in the supplement of paper PMC8728848.
# The list shows a part of the results.
# B1: PX14343C-bfa-541-26-541 (Bacteroides fragilis) (protein)
# chain: KAPLDEIADDSFWSDETLVKYYVNDLYSEISVDGLQLQENRSDNSVSAQRDKYRASWFKFNYDMVSASDPQDDDVWEDYYVKVRKCNRFFERIGTSTIEESEKSRLTGEVHFLRAMFYFEMVKRYGGVILLDKVLTMEDNWEIPRSSEKECYDFILEDLKKATEMLPASYGSREKGRATKGAAYALKSRVELYDKRYEDVIKSCAEVYKLGYELVDGTTPEKYRSIWWTTNKDNKEIIFDVQYKSPDVYNNMMVCNMVTYINDKYGDRGWGGLGPTQELIDAFEMADGTPATQYSQAPADQVFDINTCGIYEGREPRFYANIVFHGSQIFFNADKGAVTVDRYLMDTPDKGDGSLTGYNVWKWIDYDNYNYPYAGAGSPDFSTNWIILRYAEIYLNDAEARLETGDVEGARKAVNMIRQRVGLPDLTESDPEKLRELIRKERRIEFAFEEQRFYDVRRWKIGPETQTTLHGVRFVSPTEFKVTKTDIRTWNDRLYLTPVPHDEIVRSSVLKQNLGY
# Columns and labels:
# Assay in all cases: glycan array binding signal (z-score within array); higher = stronger binding
# Conditions in all cases: glycan notation: IUPAC condensed, linker removed
# [1] = molecular target: Gal(b1-3)[Fuc(a1-4)]GlcNAc(b1-6)GalNAc
# Outline: (§1)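 Arrays were curated from the Consortium for Functional Glycomics database, 3228 in total, and kept only where the protein sequence was available. Binding is expressed as a within-array Z-score. This score was averaged across arrays of the same protein sequence at different concentrations or buffers and across linkers, and negative values can be read as non-binding.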
# [2] = molecular target: Gal(b1-3)[GlcNAc(b1-6)]GalNAc
# Outline: as §1
# [3] = molecular target: Gal(b1-3)[Neu5Ac(a2-6)]GalNAc
# Outline: as §1
# [4] = molecular target: Gal(b1-3)[Neu5Ac(a2-6)]GlcNAc(b1-4)Gal(b1-4)Glc
# Outline: as §1
# [5] = molecular target: Gal(b1-3)[Neu5Ac(b2-6)]GalNAc
# Outline: as §1
# Gal(b1-4)Gal = molecular target: Gal(b1-4)Gal
# Outline: as §1
# [6] = molecular target: Gal(b1-4)GalNAc(a1-3)[Fuc(a1-2)]Gal(b1-4)GlcNAc
# Outline: as §1
# [7] = molecular target: Gal(b1-4)GalNAc(b1-3)[Fuc(a1-2)]Gal(b1-4)GlcNAc
# Outline: as §1
# Gal(b1-4)Glc = molecular target: Gal(b1-4)Glc
# Outline: as §1
# Gal(b1-4)Glc6S = molecular target: Gal(b1-4)Glc6S
# Outline: as §1
# Gal(b1-4)GlcNAc = molecular target: Gal(b1-4)GlcNAc
# Outline: as §1
# [8] = molecular target: Gal(b1-4)GlcNAc(a1-6)Gal(b1-4)GlcNAc
# Outline: as §1
# Gal(b1-4)GlcNAc(b1-2)Man = molecular target: Gal(b1-4)GlcNAc(b1-2)Man
# Outline: as §1
# [9] = molecular target: Gal(b1-4)GlcNAc(b1-2)Man(a1-3)Man(b1-4)GlcNAc(b1-4)GlcNAc
# Outline: as §1
# [10] = molecular target: Gal(b1-4)GlcNAc(b1-2)Man(a1-3)[Gal(b1-4)GlcNAc(b1-2)Man(a1-6)]Man(b1-4)GlcNAc(b1-4)GlcNAc
# Outline: as §1
# [11] = molecular target: Gal(b1-4)GlcNAc(b1-2)Man(a1-3)[Gal(b1-4)GlcNAc(b1-2)Man(a1-6)]Man(b1-4)GlcNAc(b1-4)[Fuc(a1-6)]GlcNAc
# Outline: as §1
# [12] = molecular target: Gal(b1-4)GlcNAc(b1-2)Man(a1-3)[Gal(b1-4)GlcNAc(b1-2)Man(a1-6)][Gal(b1-4)GlcNAc(b1-4)]Man(b1-4)GlcNAc(b1-4)[Fuc(a1-6)]GlcNAc
# Outline: as §1
# [13] = molecular target: Gal(b1-4)GlcNAc(b1-2)Man(a1-3)[Gal(b1-4)GlcNAc(b1-2)Man(a1-6)][GlcNAc(b1-4)]Man(b1-4)GlcNAc(b1-4)[Fuc(a1-6)]GlcNAc
# Outline: as §1
# [14] = molecular target: Gal(b1-4)GlcNAc(b1-2)Man(a1-3)[GlcNAc(b1-2)Man(a1-6)]Man(b1-4)GlcNAc(b1-4)GlcNAc
# Outline: as §1
# [15] = molecular target: Gal(b1-4)GlcNAc(b1-2)Man(a1-3)[GlcNAc(b1-4)][Gal(b1-4)GlcNAc(b1-2)Man(a1-6)]Man(b1-4)GlcNAc(b1-4)GlcNAc
# Outline: as §1
# [16] = molecular target: Gal(b1-4)GlcNAc(b1-2)Man(a1-3)[Man(a1-6)]Man(b1-4)GlcNAc(b1-4)GlcNAc
# Outline: as §1
# [17] = molecular target: Gal(b1-4)GlcNAc(b1-2)Man(a1-6)Man(b1-4)GlcNAc(b1-4)GlcNAc
# Outline: as §1
# [18] = molecular target: Gal(b1-4)GlcNAc(b1-2)Man(a1-6)[GlcNAc(b1-2)Man(a1-3)]Man(b1-4)GlcNAc(b1-4)GlcNAc
# Outline: as §1
# [19] = molecular target: Gal(b1-4)GlcNAc(b1-2)Man(a1-6)[Man(a1-3)]Man(b1-4)GlcNAc(b1-4)GlcNAc
# Outline: as §1
# [20] = molecular target: Gal(b1-4)GlcNAc(b1-2)[Gal(b1-4)GlcNAc(b1-4)]Man(a1-3)[Gal(b1-4)GlcNAc(b1-2)Man(a1-6)]Man(b1-4)GlcNAc(b1-4)GlcNAc
# Outline: as §1
# [21] = molecular target: Gal(b1-4)GlcNAc(b1-2)[Gal(b1-4)GlcNAc(b1-4)]Man(a1-3)[Gal(b1-4)GlcNAc(b1-2)[Gal(b1-4)GlcNAc(b1-6)]Man(a1-6)]Man(b1-4)GlcNAc(b1-4)GlcNAc
# Outline: as §1
# [22] = molecular target: Gal(b1-4)GlcNAc(b1-2)[Gal(b1-4)GlcNAc(b1-4)]Man(a1-3)[GlcNAc(b1-4)][Gal(b1-4)GlcNAc(b1-2)Man(a1-6)]Man(b1-4)GlcNAc(b1-4)GlcNAc
# Outline: as §1
# [23] = molecular target: Gal(b1-4)GlcNAc(b1-2)[Gal(b1-4)GlcNAc(b1-4)]Man(a1-3)[GlcNAc(b1-4)][Gal(b1-4)GlcNAc(b1-2)[Gal(b1-4)GlcNAc(b1-6)]Man(a1-6)]Man(b1-4)GlcNAc(b1-4)GlcNAc
# Outline: as §1
# [24] = molecular target: Gal(b1-4)GlcNAc(b1-2)[Gal(b1-4)GlcNAc(b1-6)]Man(a1-6)[Gal(b1-4)GlcNAc(b1-2)Man(a1-3)]Man(b1-4)GlcNAc(b1-4)GlcNAc
# Outline: as §1
# [25] = molecular target: Gal(b1-4)GlcNAc(b1-2)[Gal(b1-4)GlcNAc(b1-6)]Man(a1-6)[Gal(b1-4)GlcNAc(b1-2)Man(a1-3)]Man(b1-4)GlcNAc(b1-4)[Fuc(a1-6)]GlcNAc
# Outline: as §1
# [26] = molecular target: Gal(b1-4)GlcNAc(b1-2)[Gal(b1-4)GlcNAc(b1-6)]Man(a1-6)[GlcNAc(b1-4)][Gal(b1-4)GlcNAc(b1-2)Man(a1-3)]Man(b1-4)GlcNAc(b1-4)GlcNAc
# Outline: as §1
# [27] = molecular target: Gal(b1-4)GlcNAc(b1-2)[Gal(b1-4)GlcNAc(b1-6)]Man(a1-6)[GlcNAc(b1-4)][Gal(b1-4)GlcNAc(b1-2)[Gal(b1-4)GlcNAc(b1-4)]Man(a1-3)]Man(b1-4)GlcNAc(b1-4)[Fuc(a1-6)]GlcNAc
# Outline: as §1
# [28] = molecular target: Gal(b1-4)GlcNAc(b1-3)Gal(b1-3)GalNAc
# Outline: as §1
# [29] = molecular target: Gal(b1-4)GlcNAc(b1-3)Gal(b1-3)GlcNAc
# Outline: as §1
# [30] = molecular target: Gal(b1-4)GlcNAc(b1-3)Gal(b1-4)Glc
# Outline: as §1
# [31] = molecular target: Gal(b1-4)GlcNAc(b1-3)Gal(b1-4)GlcNAc
# Outline: as §1
# [32] = molecular target: Gal(b1-4)GlcNAc(b1-3)Gal(b1-4)GlcNAc(b1-2)Man(a1-3)[Gal(b1-4)GlcNAc(b1-3)Gal(b1-4)GlcNAc(b1-2)Man(a1-6)]Man(b1-4)GlcNAc(b1-4)GlcNAc
# Outline: as §1
# [33] = molecular target: Gal(b1-4)GlcNAc(b1-3)Gal(b1-4)GlcNAc(b1-2)Man(a1-3)[Gal(b1-4)GlcNAc(b1-3)Gal(b1-4)GlcNAc(b1-2)Man(a1-6)]Man(b1-4)GlcNAc(b1-4)[Fuc(a1-6)]GlcNAc
# Outline: as §1
binder,measurement,setting,value
B1,glycan array binding signal (z-score),[1],0.909
same,glycan array binding signal (z-score),[2],0.163
same,glycan array binding signal (z-score),[3],1.66
same,glycan array binding signal (z-score),[4],-0.082
same,glycan array binding signal (z-score),[5],1.61
same,glycan array binding signal (z-score),Gal(b1-4)Gal,-0.343
same,glycan array binding signal (z-score),[6],0.038
same,glycan array binding signal (z-score),[7],-0.908
same,glycan array binding signal (z-score),Gal(b1-4)Glc,-0.347
same,glycan array binding signal (z-score),Gal(b1-4)Glc6S,0.195
same,glycan array binding signal (z-score),Gal(b1-4)GlcNAc,0.063
same,glycan array binding signal (z-score),[8],8.35
same,glycan array binding signal (z-score),Gal(b1-4)GlcNAc(b1-2)Man,0.271
same,glycan array binding signal (z-score),[9],0.345
same,glycan array binding signal (z-score),[10],-1.05
same,glycan array binding signal (z-score),[11],1.99
same,glycan array binding signal (z-score),[12],-0.493
same,glycan array binding signal (z-score),[13],1.34
same,glycan array binding signal (z-score),[14],-1.28
same,glycan array binding signal (z-score),[15],0.029
same,glycan array binding signal (z-score),[16],-0.61
same,glycan array binding signal (z-score),[17],0.647
same,glycan array binding signal (z-score),[18],-0.236
same,glycan array binding signal (z-score),[19],-0.503
same,glycan array binding signal (z-score),[20],0.388
same,glycan array binding signal (z-score),[21],-0.349
same,glycan array binding signal (z-score),[22],-0.12
same,glycan array binding signal (z-score),[23],3.53
same,glycan array binding signal (z-score),[24],0.711
same,glycan array binding signal (z-score),[25],1.7
same,glycan array binding signal (z-score),[26],-0.454
same,glycan array binding signal (z-score),[27],-1.08
same,glycan array binding signal (z-score),[28],-0.401
same,glycan array binding signal (z-score),[29],-0.13
same,glycan array binding signal (z-score),[30],0.261
same,glycan array binding signal (z-score),[31],0.076
same,glycan array binding signal (z-score),[32],0.982
same,glycan array binding signal (z-score),[33],-0.17

# No new results follow: entries from further up.
binder,measurement,setting,value
B1,glycan array binding signal (z-score),[19],-0.503
same,glycan array binding signal (z-score),[20],0.388
same,glycan array binding signal (z-score),[21],-0.349
same,glycan array binding signal (z-score),[22],-0.12
same,glycan array binding signal (z-score),[23],3.53
same,glycan array binding signal (z-score),[24],0.711
